Laboratory results as given in publication PMC10537513.
Results are given in words; binding and its absence hold for the method and conditions named. In cells and extracts the contact can be indirect. Some binding calls cover weakened binding; strength is not graded here.

Sequences of proteins named here, by UniProt entry; tags and fusion partners are left off.
UniProt Q6XZL8: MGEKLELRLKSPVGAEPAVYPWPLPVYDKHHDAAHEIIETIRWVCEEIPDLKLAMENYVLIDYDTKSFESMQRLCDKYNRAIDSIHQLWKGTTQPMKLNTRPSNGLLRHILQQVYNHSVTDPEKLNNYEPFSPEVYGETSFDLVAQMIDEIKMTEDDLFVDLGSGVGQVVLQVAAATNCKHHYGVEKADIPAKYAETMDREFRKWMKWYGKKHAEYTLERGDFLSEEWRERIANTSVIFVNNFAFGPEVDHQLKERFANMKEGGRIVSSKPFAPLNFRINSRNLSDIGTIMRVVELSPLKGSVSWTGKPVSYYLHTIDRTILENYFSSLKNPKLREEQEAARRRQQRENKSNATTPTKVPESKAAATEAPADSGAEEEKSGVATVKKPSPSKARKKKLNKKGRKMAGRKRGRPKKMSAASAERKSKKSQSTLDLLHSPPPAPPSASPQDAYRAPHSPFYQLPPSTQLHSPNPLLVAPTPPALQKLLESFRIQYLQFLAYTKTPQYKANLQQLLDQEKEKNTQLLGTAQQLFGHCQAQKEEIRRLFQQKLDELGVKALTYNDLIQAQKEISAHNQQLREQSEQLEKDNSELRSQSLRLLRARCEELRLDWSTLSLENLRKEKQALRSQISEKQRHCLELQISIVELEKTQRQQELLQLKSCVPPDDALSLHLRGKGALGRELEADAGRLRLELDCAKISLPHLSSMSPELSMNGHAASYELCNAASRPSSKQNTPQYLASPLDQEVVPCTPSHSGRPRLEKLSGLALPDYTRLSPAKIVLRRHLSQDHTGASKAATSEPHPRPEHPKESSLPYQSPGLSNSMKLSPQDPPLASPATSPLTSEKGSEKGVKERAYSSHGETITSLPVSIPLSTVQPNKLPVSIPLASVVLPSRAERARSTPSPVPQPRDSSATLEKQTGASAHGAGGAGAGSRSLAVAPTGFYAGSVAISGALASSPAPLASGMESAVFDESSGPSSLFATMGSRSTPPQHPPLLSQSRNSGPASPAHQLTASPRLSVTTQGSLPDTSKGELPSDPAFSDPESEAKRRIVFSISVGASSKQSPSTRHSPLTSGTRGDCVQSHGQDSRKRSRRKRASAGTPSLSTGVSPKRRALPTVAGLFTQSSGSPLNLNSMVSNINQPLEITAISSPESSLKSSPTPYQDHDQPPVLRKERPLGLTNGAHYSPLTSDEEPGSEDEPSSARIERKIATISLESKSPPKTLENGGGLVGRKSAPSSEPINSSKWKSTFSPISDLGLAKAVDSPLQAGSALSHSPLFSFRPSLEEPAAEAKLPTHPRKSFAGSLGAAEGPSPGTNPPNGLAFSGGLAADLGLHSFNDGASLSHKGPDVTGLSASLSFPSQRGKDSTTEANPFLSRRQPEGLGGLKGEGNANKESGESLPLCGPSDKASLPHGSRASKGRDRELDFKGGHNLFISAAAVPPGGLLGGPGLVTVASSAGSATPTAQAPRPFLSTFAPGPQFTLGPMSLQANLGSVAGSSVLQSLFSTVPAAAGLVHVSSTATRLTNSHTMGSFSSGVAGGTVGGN
UniProt Q61937: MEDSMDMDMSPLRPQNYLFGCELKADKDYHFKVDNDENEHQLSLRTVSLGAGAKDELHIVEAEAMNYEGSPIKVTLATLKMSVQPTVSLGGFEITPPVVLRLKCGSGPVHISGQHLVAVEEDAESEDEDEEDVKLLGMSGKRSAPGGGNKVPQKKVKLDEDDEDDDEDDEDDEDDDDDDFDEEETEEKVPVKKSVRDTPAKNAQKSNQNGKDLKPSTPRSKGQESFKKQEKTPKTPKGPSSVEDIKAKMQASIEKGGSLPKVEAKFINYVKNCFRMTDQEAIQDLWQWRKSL

Assays:
[1] = molecular target: DOT1L-HA-FLAG overexpressed in N2a cells (mouse) (UniProt Q6XZL8); experiment: co-IP; chromatin fraction of N2a cells overexpressing DOT1L-FLAG-HA, resuspended in co-IP Buffer (20 mM Tris pH 7.5, 1 mM EDTA, 100 mM NaCl, 0.5% NP40) and sonicated; co-IP as for total lysate
[2] = molecular target: DOT1L-HA-FLAG overexpressed in N2a cells (mouse) (UniProt Q6XZL8); experiment: co-IP + cross-linking; N2a cells expressing DOT1L-HA-FLAG for 72 h, lysed in co-IP Buffer 1, incubated with DMSO or 0.5 mM EGS for 30 min at 25 °C, quenched with Tris-HCl pH 7.5; DOT1L immunoprecipitated with HA antibody, immunoblot with NPM1 antibody
[3] = molecular target: DOT1L-HA-FLAG overexpressed in N2a cells (mouse) (UniProt Q6XZL8); experiment: co-IP; nucleoplasm fraction of N2a cells overexpressing DOT1L-FLAG-HA, adjusted with co-IP Buffer (20 mM Tris pH 7.5, 1 mM EDTA, 100 mM NaCl, 0.5% NP40); co-IP as for total lysate
[4] = molecular target: Nucleophosmin 1 (NPM1), endogenous in N2a cells (mouse (endogenous in N2a)) (UniProt Q61937); experiment: cross-linking; N2a lysate in co-IP Buffer 1 with 0.5 mM EGS for 30 min at 25 °C; input probed with NPM1 antibody: monomeric and oligomeric NPM1 bands
[5] = molecular target: DOT1L-HA-FLAG overexpressed in N2a cells (mouse) (UniProt Q6XZL8); experiment: co-IP; DOT1L-FLAG-HA overexpressed in N2a cells; lysate in co-IP Buffer 1 (20 mM Tris pH 7.5, 1 mM EDTA, 100 mM NaCl, 0.5% NP40); IP with HA antibody (or NPM1 antibody) on protein G dynabeads overnight, IgG control; DOT1L detected with FLAG antibody; also with lysate treated with 20 ug RNase (much stronger interaction) or 5U DNase (binding not affected) for 30 min before the co-IP
[6] = molecular target: DOT1L-HA-FLAG overexpressed in N2a cells (mouse) (UniProt Q6XZL8); experiment: proximity ligation; in situ PLA (Duolink) in N2a cells overexpressing DOT1L-FLAG-HA, antibodies against FLAG and NPM1; signal inside the nucleus (LMNB1), outside the nucleolus (FBL)
[7] = molecular target: DOT1L, endogenous in N2a cells (mouse (endogenous in N2a)) (UniProt Q6XZL8); experiment: co-IP; endogenous proteins, N2a cell lysate (4*10^7 cells) in co-IP Buffer 2 (20 mM Hepes pH8, 300 mM NaCl, 0.5% NP40, 10% glycerol, 1 mM EDTA) equilibrated to 150 mM NaCl; DOT1L antibody or NPM1 antibody on protein G dynabeads overnight; immunoblot

- binding [1]: binds
- binding [2]: binds
- binding [4]: binds
- binding [5]: binds
- binding [6]: binds
- binding [7]: binds
Substance: Nucleophosmin 1 (NPM1), endogenous in N2a cells (from UniProt Q61937 1-292)
- binding [3]: no binding (condition: in the nucleoplasm fraction)
